From paper PMC7338535
Results are given in words; binding and its absence hold for the method and conditions named. Binding calls can cover weak binding; strength is not graded here. Where a sequence is shown, tags or fusion partners need not be part of it. For some assays here: In cells and extracts the contact can be indirect.

Experiments:
[1] = target: DiB2-split N-terminal fragment, His-tagged (UniProt P0A901); assay: pull-down; His-tagged N-fragment and untagged C-fragment co-expressed in E. coli; immobilized metal ion affinity purification (TALON resin) from the cell-free extract
[2] = target: DiB2-split N-terminal fragment, His-tagged (UniProt P0A901); assay: crystal structure; DiB2-split, crystals grown at 21 °C in 1.6 M ammonium sulphate, 0.1 M MES, pH 4.5; three split molecules in the asymmetric unit; both purified

B1: DiB2-split C-terminal fragment, untagged (domain or fragment)
chain: GPFYGGYNVIALDREYRHALVCGPDRDYLWILSRTPTISDEVKQEMLAVATREGFDVSKFIWVQQPGS
binding [1]: binds | binding [2]: binds
